Laboratory results reported in PMC8906119.
No constants are given. Whether binding was seen depends on the method and setting. In cells and extracts the contact can be indirect. A yes stands for co-enrichment or nearness to the bait. Other partners may have been found.

Molecular target: WW domain-containing E3 ubiquitin protein ligase1 (WWP1) (human (endogenous in HuCCT1, HCCC-9810, RBE)) (UniProt Q9H0M0)
Experiment: affinity purification with mass spectrometry; immunoprecipitation with WWP1 antibody from ICC cells, SDS-PAGE with Coomassie blue staining, label-free mass spectrometry

- binding: binds
B1: Nedd4 family interacting protein1 (NDFIP1) (protein, UniProt Q9BT67 1-221)
chain: MALALAALAAVEPACGSRYQQLQNEEESGEPEQAAGDAPPPYSSISAESAAYFDYKDESGFPKPPSYNVATTLPSYDEAERTKAEATIPLVPGRDEDFVGRDDFDDADQLRIGNDGIFMLTFFMAFLFNWIGFFLSFCLTTSAAGRYGAISGFGLSLIKWILIVRFSTYFPGYFDGQYWLWWVFLVLGFLLFLRGFINYAKVRKMPETFSNLPRTRVLFIY
